In the test the target is T1, complement C1Q binding protein (C1qbp), endogenous in Raw264.7 macrophages (mouse (endogenous in Raw264.7)) (UniProt O35658).
T1 sequence: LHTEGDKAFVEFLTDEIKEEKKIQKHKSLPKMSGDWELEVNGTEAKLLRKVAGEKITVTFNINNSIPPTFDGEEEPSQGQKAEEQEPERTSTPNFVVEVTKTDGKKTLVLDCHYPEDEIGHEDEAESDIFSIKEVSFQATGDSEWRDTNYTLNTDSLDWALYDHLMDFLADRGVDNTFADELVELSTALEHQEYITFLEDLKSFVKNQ
Put plainly: affinity purification with mass spectrometry; Raw264.7 whole-cell lysate incubated with anti-C1qbp antibody or control IgG overnight at 4 °C, then Protein A/G magnetic beads for 4 h; LC/MS/MS.

Sequences of proteins named here, by UniProt entry; tags and fusion partners are left off.
UniProt P29351: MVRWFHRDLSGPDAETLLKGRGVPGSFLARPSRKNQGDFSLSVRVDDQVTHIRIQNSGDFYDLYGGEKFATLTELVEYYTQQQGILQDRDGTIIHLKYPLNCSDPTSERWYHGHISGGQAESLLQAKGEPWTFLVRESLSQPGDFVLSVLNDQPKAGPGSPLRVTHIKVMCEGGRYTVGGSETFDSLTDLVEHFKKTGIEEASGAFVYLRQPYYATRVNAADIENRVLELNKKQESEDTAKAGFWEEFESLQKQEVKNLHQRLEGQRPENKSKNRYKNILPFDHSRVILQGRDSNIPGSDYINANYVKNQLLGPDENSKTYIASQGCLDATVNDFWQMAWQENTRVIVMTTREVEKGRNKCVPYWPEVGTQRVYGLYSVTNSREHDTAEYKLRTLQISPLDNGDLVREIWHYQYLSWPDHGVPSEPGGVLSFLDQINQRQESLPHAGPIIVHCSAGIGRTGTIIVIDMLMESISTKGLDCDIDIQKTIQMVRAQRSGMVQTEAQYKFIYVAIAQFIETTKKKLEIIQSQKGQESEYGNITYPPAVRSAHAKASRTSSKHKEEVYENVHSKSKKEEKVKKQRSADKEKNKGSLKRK

The values below come from PMC11103506.

Results are given in words; binding and its absence hold for the method and conditions named. Binding seen in cells or lysates may run through a third protein. Here binding means that the protein was enriched with, or labelled near, the bait; the list need not be complete.

“tyrosine phosphatase Src homologous region 2 containing phosphatase 1 (Shp1), endogenous in Raw264.7 (from UniProt P29351 1-595) (enzyme)”: the binding result is reported as “binds”.

B1: CD16 receptor (FcγRIIIA/CD16), endogenous in Raw264.7 (receptor, UniProt P08508 31-261)
chain: ALPKAVVKLDPPWIQVLKEDMVTLMCEGTHNPGNSSTQWFHNGRSIRSQVQASYTFKATVNDSGEYRCQMEQTRLSDPVDLGVISDWLLLQTPQRVFLEGETITLRCHSWRNKLLNRISFFHNEKSVRYHHYKSNFSIPKANHSHSGDYYCKGSLGSTQHQSKPVTITVQDPATTSSISLVWYHTAFSLVMCLLFAVDTGLYFYVRRNLQTPREYWRKSLSIRKHQAPQDK
Regarding B1, the binding entry was “binds”.
